From the supplement of paper PMC12067093, “Discovery and optimisation of a covalent ligand for TRIM25 and its application to targeted protein ubiquitination” (Chemical Science, 2025)
Some of the results follow.

Chains of the proteins cited; added tags and fusions are not shown. Lines headed by an entry give the natural chain unless they say otherwise; changes in a name come on top.
UniProt O95602, whole entry, looked up: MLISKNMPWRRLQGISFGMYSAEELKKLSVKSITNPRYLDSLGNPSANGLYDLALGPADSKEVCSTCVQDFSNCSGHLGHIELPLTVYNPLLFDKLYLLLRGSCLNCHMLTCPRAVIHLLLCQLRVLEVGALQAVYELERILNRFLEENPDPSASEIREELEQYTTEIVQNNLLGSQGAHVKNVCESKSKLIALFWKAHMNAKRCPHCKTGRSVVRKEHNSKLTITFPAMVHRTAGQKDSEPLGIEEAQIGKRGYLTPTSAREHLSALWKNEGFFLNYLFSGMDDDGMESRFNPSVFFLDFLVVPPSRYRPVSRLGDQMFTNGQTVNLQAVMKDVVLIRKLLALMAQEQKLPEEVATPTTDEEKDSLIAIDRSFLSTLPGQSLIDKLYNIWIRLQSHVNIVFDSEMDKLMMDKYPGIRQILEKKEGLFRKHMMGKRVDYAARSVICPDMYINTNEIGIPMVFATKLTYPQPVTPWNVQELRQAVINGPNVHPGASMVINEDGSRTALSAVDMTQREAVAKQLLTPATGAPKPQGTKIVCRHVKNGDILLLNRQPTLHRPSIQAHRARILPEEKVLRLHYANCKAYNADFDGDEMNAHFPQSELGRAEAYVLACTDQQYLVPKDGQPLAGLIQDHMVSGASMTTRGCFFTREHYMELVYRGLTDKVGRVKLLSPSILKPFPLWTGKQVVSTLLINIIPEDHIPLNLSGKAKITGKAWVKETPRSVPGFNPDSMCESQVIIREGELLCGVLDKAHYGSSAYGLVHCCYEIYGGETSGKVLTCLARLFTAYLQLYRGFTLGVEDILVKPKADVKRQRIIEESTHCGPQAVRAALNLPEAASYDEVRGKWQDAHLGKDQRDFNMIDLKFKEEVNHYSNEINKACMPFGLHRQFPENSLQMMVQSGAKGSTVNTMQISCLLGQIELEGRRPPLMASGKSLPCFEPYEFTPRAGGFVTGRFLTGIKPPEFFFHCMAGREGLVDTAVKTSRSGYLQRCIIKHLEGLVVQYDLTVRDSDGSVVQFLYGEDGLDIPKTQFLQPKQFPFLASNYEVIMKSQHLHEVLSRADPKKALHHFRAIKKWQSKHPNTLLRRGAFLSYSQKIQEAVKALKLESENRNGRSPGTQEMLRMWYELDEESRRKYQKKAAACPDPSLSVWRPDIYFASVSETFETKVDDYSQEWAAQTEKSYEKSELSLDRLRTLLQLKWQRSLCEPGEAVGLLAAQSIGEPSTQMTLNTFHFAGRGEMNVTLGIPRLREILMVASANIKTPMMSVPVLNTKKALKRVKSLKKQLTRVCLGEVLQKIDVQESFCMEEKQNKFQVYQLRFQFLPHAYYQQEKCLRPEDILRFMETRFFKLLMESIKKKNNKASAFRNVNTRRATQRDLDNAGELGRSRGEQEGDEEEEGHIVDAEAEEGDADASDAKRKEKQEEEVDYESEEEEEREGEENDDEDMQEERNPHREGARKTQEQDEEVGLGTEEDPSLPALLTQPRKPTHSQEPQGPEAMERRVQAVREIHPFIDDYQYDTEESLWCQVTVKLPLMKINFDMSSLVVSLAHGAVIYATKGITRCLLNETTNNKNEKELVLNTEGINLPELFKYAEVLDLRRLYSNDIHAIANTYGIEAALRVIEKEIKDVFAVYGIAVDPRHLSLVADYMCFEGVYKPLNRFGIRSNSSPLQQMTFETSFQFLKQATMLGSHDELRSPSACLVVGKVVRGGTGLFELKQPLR
UniProt Q99575: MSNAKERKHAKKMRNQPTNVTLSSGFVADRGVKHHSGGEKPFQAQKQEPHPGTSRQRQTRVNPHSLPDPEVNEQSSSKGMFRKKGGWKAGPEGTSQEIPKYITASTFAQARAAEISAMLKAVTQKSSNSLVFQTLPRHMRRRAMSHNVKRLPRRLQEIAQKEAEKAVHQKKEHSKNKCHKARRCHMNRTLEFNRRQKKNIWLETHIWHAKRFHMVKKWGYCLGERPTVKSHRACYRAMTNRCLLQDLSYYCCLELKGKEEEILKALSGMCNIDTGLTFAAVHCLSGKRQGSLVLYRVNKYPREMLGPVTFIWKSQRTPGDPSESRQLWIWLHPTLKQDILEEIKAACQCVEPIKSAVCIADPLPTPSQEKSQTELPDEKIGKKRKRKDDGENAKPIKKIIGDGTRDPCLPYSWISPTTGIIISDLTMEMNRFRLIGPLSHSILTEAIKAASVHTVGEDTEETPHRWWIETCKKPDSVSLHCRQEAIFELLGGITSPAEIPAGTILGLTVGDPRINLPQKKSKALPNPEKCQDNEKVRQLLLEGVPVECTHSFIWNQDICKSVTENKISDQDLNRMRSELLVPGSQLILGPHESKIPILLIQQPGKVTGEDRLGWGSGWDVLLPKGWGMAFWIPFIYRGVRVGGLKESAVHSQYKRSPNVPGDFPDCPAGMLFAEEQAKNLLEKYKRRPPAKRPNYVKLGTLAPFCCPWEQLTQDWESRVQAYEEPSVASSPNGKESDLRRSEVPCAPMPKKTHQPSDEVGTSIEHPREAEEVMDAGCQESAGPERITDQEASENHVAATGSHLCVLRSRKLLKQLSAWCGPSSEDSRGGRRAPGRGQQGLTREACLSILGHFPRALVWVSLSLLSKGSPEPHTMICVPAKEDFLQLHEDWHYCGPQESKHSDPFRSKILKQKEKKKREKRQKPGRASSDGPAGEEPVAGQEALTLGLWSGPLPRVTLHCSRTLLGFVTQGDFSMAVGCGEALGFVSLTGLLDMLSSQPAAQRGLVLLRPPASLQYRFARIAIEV
UniProt Q15063: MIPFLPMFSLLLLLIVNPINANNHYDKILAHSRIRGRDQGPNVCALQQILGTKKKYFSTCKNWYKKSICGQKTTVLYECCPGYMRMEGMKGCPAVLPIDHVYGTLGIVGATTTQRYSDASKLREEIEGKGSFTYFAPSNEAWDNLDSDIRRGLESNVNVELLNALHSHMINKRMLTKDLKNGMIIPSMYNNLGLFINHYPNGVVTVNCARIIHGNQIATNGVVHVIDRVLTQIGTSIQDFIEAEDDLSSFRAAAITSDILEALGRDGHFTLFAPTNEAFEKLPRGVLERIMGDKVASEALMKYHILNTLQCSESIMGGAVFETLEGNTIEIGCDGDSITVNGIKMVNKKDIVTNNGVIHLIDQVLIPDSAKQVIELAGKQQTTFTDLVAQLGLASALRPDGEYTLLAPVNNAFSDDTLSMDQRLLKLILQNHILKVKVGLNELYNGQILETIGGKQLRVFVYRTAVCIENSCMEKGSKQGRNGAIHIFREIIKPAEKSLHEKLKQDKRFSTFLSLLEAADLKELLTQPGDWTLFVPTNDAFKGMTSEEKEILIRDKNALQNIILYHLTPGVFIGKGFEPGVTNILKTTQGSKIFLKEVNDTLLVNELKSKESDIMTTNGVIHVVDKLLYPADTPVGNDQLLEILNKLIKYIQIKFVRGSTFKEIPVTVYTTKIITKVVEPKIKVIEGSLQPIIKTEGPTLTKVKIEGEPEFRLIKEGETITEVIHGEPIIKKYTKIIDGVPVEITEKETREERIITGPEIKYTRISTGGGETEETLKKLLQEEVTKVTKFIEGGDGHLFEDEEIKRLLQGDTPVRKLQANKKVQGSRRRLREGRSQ
UniProt Q9H9Y6, whole entry, looked up: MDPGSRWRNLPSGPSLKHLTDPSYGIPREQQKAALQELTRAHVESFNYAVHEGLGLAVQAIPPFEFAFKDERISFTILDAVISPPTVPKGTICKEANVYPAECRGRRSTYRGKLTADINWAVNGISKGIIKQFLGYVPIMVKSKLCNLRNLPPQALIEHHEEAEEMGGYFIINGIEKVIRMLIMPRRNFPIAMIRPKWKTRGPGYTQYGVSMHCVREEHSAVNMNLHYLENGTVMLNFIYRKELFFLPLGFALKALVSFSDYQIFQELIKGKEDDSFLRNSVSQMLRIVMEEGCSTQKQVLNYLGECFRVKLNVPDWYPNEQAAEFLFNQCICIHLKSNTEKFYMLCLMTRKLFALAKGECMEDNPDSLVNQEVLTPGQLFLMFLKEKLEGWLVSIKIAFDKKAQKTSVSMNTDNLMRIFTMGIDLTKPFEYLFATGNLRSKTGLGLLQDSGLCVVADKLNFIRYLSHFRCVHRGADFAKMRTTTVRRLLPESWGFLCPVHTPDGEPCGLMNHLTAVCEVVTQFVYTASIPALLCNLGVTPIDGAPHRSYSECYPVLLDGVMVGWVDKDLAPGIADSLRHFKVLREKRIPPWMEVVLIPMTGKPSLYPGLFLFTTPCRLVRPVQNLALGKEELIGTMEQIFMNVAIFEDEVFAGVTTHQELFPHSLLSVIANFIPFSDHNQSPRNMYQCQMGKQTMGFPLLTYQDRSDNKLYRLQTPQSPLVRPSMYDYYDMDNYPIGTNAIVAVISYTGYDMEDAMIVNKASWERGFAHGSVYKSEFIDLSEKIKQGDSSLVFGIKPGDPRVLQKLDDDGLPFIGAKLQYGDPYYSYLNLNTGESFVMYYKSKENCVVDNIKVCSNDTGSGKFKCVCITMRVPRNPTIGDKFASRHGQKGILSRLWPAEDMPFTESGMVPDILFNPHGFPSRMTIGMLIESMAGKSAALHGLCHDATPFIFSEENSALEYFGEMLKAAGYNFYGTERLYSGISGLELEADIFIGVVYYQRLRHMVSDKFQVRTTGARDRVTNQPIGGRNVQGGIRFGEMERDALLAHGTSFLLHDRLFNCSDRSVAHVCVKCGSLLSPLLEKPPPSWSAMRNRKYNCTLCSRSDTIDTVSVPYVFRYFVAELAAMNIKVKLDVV
UniProt Q9Y2Y1: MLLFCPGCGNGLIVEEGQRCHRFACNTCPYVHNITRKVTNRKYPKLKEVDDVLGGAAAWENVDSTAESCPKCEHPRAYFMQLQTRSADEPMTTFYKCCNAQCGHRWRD
UniProt P30405: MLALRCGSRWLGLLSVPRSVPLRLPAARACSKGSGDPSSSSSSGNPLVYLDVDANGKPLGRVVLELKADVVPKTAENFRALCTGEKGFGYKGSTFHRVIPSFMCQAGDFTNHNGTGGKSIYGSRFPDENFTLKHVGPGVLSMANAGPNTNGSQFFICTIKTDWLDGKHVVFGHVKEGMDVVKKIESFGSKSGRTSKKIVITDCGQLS
UniProt Q9H2U2: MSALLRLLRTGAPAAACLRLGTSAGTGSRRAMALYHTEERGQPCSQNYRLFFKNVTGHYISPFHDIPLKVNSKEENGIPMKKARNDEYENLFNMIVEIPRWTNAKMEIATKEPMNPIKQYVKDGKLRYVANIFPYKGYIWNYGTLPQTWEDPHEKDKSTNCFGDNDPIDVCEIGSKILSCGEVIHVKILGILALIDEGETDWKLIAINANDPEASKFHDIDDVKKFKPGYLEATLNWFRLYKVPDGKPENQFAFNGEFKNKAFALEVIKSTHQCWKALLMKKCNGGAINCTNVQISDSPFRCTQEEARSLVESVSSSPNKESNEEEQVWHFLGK
UniProt Q8WZA1: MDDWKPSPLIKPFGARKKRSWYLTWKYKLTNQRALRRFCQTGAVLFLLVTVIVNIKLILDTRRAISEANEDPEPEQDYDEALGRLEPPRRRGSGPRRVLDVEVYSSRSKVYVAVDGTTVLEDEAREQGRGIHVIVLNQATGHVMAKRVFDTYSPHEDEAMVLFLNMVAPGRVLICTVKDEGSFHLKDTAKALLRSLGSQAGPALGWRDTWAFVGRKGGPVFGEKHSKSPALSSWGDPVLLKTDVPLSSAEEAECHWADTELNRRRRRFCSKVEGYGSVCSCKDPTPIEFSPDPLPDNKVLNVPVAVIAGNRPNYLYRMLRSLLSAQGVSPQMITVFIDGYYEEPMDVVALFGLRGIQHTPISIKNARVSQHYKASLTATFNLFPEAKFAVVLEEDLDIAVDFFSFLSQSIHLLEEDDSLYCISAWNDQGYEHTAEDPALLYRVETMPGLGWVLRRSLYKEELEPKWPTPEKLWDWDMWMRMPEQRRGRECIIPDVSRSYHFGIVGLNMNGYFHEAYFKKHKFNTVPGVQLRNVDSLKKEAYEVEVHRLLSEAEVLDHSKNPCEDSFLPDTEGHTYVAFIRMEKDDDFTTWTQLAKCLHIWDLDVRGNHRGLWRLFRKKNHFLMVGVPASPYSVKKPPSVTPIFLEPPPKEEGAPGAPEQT
UniProt Q15181: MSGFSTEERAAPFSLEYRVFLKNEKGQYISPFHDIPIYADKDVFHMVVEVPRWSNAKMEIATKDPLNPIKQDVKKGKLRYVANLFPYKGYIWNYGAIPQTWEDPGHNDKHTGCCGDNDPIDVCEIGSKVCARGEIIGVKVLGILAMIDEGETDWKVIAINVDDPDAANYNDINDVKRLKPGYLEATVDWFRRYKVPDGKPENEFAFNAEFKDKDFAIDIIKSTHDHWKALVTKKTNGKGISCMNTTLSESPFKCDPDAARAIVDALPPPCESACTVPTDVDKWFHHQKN

Compound: Cc1cc(ccc1-c1ccccc1)C(=O)N1CCCN(CC1)C(=O)CCl [compound 10]
Assay: probe-labelled cysteine peptide fold change vs DMSO (competition) (log2 fold change); higher = less target engagement (more negative = stronger competition)
Details: THP-1, incubation time: 4 h
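Further: competitive profiling in live THP-1 cells: cysteine peptides tagged with an iodoacetamide desthiobiotin (IA-DTB) probe, intensity after compound treatment relative to DMSO-treated cells.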

Question: What does the source list for “POLR1A_O95602_822_IIEESTHCGPQAVR (UniProt O95602)”?
Answer: probe-labelled cysteine peptide fold change (10 µM): 0.032; probe-labelled cysteine peptide fold change (50 µM): 0.0541

Question: For “POP1_Q99575_221_WGYCLGERPTVK (UniProt Q99575)”, which “probe-labelled cysteine peptide fold change” value (10 µM) is on record?
Answer: The value was -0.168.

Question: And the “probe-labelled cysteine peptide fold change” value (50 µM)?
Answer: Its value is -0.00496.

Question: What does the source list for “POSTN_Q15063_44_GRDQGPNVCALQQILGTK (UniProt Q15063)”?
Answer: probe-labelled cysteine peptide fold change (10 µM): -0.519; probe-labelled cysteine peptide fold change (50 µM): -0.555

Question: What does the source list for “POU2F2_P09086_187_CLEPPSHPEEPSDLEELEQFAR (UniProt P09086)”?
Answer: probe-labelled cysteine peptide fold change (10 µM): -0.342; probe-labelled cysteine peptide fold change (50 µM): -0.433

Question: With “POLR1B_Q9H9Y6_1101_KYNCTLCSR (UniProt Q9H9Y6)” as the target, how does the “probe-labelled cysteine peptide fold change” value (10 µM) read?
Answer: The value was 0.0656.

Question: What about the “probe-labelled cysteine peptide fold change” value (50 µM) of the same target?
Answer: Its value is -0.378.

Question: For “POLR1A_O95602_914_GSTVNTMQISCLLGQIELEGR (UniProt O95602)”, which “probe-labelled cysteine peptide fold change” value (10 µM) is on record?
Answer: Its value is -0.0412.

Question: And the “probe-labelled cysteine peptide fold change” value (50 µM)?
Answer: Its value is 0.147.

Question: “POLE_Q07864_2148_LVDVGEFSEEAQFRDPCR (UniProt Q07864)” was tested. Which “probe-labelled cysteine peptide fold change” value (10 µM) did it give?
Answer: The value was -0.167.

Question: And the “probe-labelled cysteine peptide fold change” value (50 µM)?
Answer: Its value is -0.403.

Question: With “POLR3K_Q9Y2Y1_97_CCNAQCGHR (UniProt Q9Y2Y1)” as the target, how does the “probe-labelled cysteine peptide fold change” value (10 µM) read?
Answer: Its value is 0.226.

Question: And the “probe-labelled cysteine peptide fold change” value (50 µM)?
Answer: The value was 0.0468.

Question: How did the “probe-labelled cysteine peptide fold change” value (10 µM) turn out when “POP1_Q99575_706_LGTLAPFCCPWEQLTQDWESR (UniProt Q99575)” was run?
Answer: Its value is -0.246.

Question: And the “probe-labelled cysteine peptide fold change” value (50 µM)?
Answer: Its value is -0.686.

Question: How did the “probe-labelled cysteine peptide fold change” value (10 µM) turn out when “PPIF_P30405_203_IVITDCGQLS (UniProt P30405)” was run?
Answer: Its value is -0.136.

Question: What about the “probe-labelled cysteine peptide fold change” value (50 µM) of the same target?
Answer: The value was 0.00957.

Question: With “PPA2_Q9H2U2_44_GQPCSQNYR (UniProt Q9H2U2)” as the target, how does the “probe-labelled cysteine peptide fold change” value (10 µM) read?
Answer: The value was -0.17.

Question: What about the “probe-labelled cysteine peptide fold change” value (50 µM) of the same target?
Answer: The value was -0.0246.

Question: “POLR3B_Q9NW08_1054_DCLIGYGASMLLLER (UniProt Q9NW08)” was tested. Which “probe-labelled cysteine peptide fold change” value (10 µM) did it give?
Answer: Its value is 0.354.

Question: And the “probe-labelled cysteine peptide fold change” value (50 µM)?
Answer: Its value is 0.0801.

Question: What does the source list for “POMGNT1_Q8WZA1_562_NPCEDSFLPDTEGHTYVAFIR (UniProt Q8WZA1)”?
Answer: probe-labelled cysteine peptide fold change (10 µM): -0.268; probe-labelled cysteine peptide fold change (50 µM): 0.11

Question: How did the “probe-labelled cysteine peptide fold change” value (10 µM) turn out when “PPA1_Q15181_113+114_HTGCCGDNDPIDVCEIGSK (UniProt Q15181)” was run?
Answer: Its value is -0.0356.

Question: What about the “probe-labelled cysteine peptide fold change” value (50 µM) of the same target?
Answer: Its value is 0.452.
